Measured values published in publication PMC7862700.
Only a part is listed here, and it is no random draw. At the low end of the ranking the order means little.

molecular target: T1, ELF5 (UniProt Q9UKW6-2); test: DAPPL (digital affinity profiling via proximity ligation, sequencing); conditions: 10 mM Tris-HCl pH 7.5, 50 mM NaCl, 1 mM DTT, 4% glycerol, room temperature, 30 min; GST-TFs on glutathione beads, 16-mer random dsDNA library, 0.1% …; high values mean tight binding; double strand, one strand shown; scale: fold enrichment (6-mer frequency, TF over GST control)
T1 sequence: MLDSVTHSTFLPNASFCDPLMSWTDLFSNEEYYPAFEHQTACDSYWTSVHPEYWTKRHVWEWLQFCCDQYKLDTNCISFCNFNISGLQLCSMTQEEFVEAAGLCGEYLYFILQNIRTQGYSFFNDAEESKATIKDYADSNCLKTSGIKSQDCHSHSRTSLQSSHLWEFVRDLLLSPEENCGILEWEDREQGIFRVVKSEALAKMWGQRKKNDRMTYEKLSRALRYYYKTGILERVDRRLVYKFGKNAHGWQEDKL

| Sequence | binding signal |
| --- | --- |
| CGAACC | 1.09 |
| CATAAT | 0.985 |
| AATAGG | 1.19 |
| AATCCA | 1.05 |
| GATTAA | 0.99 |
| TATAAA | 1.24 |
| AGATAA | 0.997 |
| ATCACA | 0.995 |
| CTAGTA | 1.08 |
| TGTTAC | 1.43 |
| GGTGTT | 0.977 |
| TCGCAT | 0.935 |
| TCACCC | 1.07 |
| TAATGG | 1.32 |
| CCATCT | 1.27 |
| ATTAAA | 1.12 |
| AAAACC | 1.19 |
| GTTTTA | 1.09 |
| ATTGGG | 1.11 |
| TCTGTG | 1.04 |

| Sequence | binding signal |
| --- | --- |
| GCTTTT | 1.06 |
| TTAAGA | 0.971 |
| TTGACT | 1.08 |
| AAATCT | 1.27 |
| GTTATT | 1.21 |
| GTTCGA | 0.966 |
| CTGATT | 1.19 |
| TGGAAT | 1.18 |
| TGCTCG | 1.18 |
| AGCACT | 1.52 |
| AAGTTC | 1.57 |
| GTAATA | 1.2 |
| AGTTCT | 1.15 |
| AAGGTT | 1.1 |
| TTGGAT | 0.948 |
| TGTTGC | 1.3 |
| AACTCC | 1.32 |
| GTTCTG | 1.1 |
| TTGTAT | 1.35 |

Three entries from above in another layout.
TCACCC
  binding signal = 1.07
GCTTTT
  binding signal = 1.06
TGGAAT
  binding signal = 1.18
